In paper doi:10.1101/2023.07.05.547753 one finds binding data, which are given here for 3 substances.

Amino acid sequences for entries named in this document (tags omitted).
UniProt O22130: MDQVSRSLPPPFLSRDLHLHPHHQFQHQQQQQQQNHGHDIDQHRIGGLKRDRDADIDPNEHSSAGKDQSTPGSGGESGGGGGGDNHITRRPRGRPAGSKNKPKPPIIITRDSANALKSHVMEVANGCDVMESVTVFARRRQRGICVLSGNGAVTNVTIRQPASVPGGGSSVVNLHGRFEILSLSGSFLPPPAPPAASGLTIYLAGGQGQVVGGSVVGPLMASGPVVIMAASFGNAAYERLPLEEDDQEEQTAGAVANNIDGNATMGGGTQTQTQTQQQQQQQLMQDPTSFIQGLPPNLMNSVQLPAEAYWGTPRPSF

The target of experiment [1] is T1, FRS12-GFP (Arabidopsis thaliana) (UniProt Q3E7I5).
T1 sequence: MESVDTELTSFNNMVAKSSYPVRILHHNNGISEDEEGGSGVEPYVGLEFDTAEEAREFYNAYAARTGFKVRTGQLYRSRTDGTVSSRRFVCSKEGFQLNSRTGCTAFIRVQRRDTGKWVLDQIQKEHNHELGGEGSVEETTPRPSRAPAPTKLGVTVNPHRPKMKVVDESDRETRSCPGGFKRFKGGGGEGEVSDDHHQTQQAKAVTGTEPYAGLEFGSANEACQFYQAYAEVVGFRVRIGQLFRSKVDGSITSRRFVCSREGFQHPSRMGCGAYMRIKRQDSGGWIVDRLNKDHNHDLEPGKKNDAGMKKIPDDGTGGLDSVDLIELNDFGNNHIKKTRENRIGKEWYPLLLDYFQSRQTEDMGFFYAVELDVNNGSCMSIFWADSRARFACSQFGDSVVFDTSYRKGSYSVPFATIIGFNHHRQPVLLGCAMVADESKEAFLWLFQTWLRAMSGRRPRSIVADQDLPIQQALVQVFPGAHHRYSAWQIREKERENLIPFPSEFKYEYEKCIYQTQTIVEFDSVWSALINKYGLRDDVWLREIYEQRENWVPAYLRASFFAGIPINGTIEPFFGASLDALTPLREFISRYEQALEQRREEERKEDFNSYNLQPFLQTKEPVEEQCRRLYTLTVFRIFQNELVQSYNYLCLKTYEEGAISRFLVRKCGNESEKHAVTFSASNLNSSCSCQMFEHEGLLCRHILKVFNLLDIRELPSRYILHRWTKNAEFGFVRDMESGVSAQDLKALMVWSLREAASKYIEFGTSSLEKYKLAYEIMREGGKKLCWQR
Briefly: co-IP.

In experiment [2] the target is T2, FRS7-GFP (Arabidopsis thaliana) (UniProt Q9M8J3).
T2 sequence: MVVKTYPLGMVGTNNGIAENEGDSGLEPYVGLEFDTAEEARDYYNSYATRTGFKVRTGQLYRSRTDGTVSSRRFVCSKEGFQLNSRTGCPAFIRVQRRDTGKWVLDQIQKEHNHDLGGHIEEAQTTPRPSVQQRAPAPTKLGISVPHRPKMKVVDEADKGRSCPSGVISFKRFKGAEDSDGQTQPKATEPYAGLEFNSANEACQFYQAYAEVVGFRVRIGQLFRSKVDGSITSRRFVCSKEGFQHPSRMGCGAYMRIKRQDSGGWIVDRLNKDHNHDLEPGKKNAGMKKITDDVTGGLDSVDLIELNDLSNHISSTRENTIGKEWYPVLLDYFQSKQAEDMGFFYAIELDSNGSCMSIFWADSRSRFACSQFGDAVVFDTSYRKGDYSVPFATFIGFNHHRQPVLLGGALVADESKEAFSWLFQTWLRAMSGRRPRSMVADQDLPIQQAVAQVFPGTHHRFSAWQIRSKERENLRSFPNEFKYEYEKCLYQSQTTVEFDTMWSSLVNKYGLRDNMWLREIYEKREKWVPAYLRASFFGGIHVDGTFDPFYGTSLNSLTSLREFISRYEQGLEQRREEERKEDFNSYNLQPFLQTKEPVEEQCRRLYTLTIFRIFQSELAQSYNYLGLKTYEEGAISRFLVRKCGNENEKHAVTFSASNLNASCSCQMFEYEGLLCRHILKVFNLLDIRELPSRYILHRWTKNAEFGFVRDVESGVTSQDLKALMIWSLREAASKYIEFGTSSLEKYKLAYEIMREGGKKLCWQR
Put plainly: co-IP.

Experiment [3] deals with T3, HDA15 fused to eGFP or mRFP (FRET-FLIM fusion) (Arabidopsis thaliana) (UniProt Q8GXJ1).
T3 sequence: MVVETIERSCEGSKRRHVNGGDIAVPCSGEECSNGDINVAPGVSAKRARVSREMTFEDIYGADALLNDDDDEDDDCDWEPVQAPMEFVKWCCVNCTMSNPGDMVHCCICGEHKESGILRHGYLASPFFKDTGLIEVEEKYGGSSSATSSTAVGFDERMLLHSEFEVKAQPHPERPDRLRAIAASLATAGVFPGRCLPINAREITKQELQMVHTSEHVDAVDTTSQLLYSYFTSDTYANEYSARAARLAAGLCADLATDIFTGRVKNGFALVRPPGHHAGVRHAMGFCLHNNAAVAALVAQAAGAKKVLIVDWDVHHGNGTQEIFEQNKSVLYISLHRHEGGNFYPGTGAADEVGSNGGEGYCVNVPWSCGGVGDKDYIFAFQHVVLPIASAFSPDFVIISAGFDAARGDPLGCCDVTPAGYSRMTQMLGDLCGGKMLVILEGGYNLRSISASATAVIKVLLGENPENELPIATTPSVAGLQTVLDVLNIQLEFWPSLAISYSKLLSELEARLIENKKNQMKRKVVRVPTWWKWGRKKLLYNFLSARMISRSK
Put plainly: FRET or BRET.

The target of experiment [4] is T4, FRS12 fused to eGFP or mRFP (FRET-FLIM fusion) (Arabidopsis thaliana) (UniProt Q3E7I5).
T4 sequence: T1 sequence
Briefly: FRET or BRET.

Experiment [5] concerns the target T5, FRS7 fused to eGFP or mRFP (FRET-FLIM fusion) (Arabidopsis thaliana) (UniProt Q9M8J3).
T5 sequence: T2 sequence
Put plainly: FRET or BRET.

The target of experiment [6] is T6, FRS7 fused with pSITE-cEYFP-C1 (BiFC fusion) (Arabidopsis thaliana) (UniProt Q9M8J3).
T6 sequence: T2 sequence
Put plainly: split reporter.

Experiment [7] addresses T7, FRS12 fused with pSITE-cEYFP-C1 (BiFC fusion) (Arabidopsis thaliana) (UniProt Q3E7I5).
T7 sequence: T1 sequence
Put plainly: split reporter.

These are yes or no findings as the source states them, for the method shown. In cells and extracts the contact can be indirect. Some binding calls cover weakened binding; strength is not graded here. Sequences can lack the tags named with a protein.

For AHL22-3FLAG (from UniProt O22130 1-317), the binding result in experiment [1] and in experiment [2] was “binds” throughout.
“AHL22 fused to eGFP or mRFP (FRET-FLIM fusion) (from UniProt O22130 1-317)”: the binding result in experiment [3], in experiment [4] and in experiment [5] was “binds” each time.
In the case of “AHL22 fused with pSITE-nEYFP-N1 (BiFC fusion) (from UniProt O22130 1-317)”, the binding entry in experiment [6] and in experiment [7] was “binds” throughout.
